Test results: article PMC10163288
This is one part of the list.

B1: il10ra_site1_sap_12_mot_2e6e1eda43ba67e2c9eb6e09d05f5a85_0001_000000079_0001_1_12_H_._HHH_eva_0086_0001_0000300018_0000001_0_0001 (protein)
chain: DLEELVELLLEHARTANDEEVQRLIEEVLRLLKEDPEKAEELAEEALERTGNLILWQLLFLIRRH
B2: il10ra_site1_sap_27_mot_HHH_b2_06864_af2_000000190_0001_1_20_H_._HHH_b2_06460_0001_0000200027_0000002_0_0001_af2pred_0001 (protein)
chain: SSSSSDEEERKRALELLLIASRLGDKELAERLLRLAAKYLREGDPRYVEEMEELVEEVKKSSSSS
B3: il10ra_site1_normal_mot_HHH_b2_00475_000000107_0001_44_57_H_._HHH_b1_06647_af2_0001_0000300012_0000001_0 (protein)
chain: SSSSLEERVVELAFRAVRLLANGNPEEAEEVLEEARELAEELNDEELRRYVEIAEHFVEAHSSSS
B4: il10ra_site1_sap_17_mot_HHH_b2_07688_000000045_0001_1_20_H_._HHH_b2_03262_af2_0001_0000600051_0000001_1_0001 (protein)
chain: SSSSDEERHRLAELILRVARLMFRGNPEEAKELIEEAEELAKELGDERAERMLEDLERILNSSSS
B5: il10ra_site1_normal_mot_b26a303360aa2756ef5b79665ce52f45_0001_000000179_0001_1_11_H_._HHH_b1_02177_af2_0001_0000200024_0000001_1 (protein)
chain: SSSSDEELEKLFKLIREAAELAYRGNPEEAKQVLEEALELAEELGNEVIAFSIRHLLRDLSSSSS
B6: il10ra_site1_sap_17_mot_HHH_b1_04514_000000156_0001_1_18_H_._HHH_b1_03809_0001_0000300008_0000001_0_0001 (protein)
chain: SSSSDEAYRIAEEVIEEVIELQRNGNEEEAEKLLREAREEVEEANTMAALWSLRHLLRLLTSSSS
B7: il10ra_site1_normal_mot_HHH_b1_05021_af2_000000167_0001_42_56_H_._HHH_b2_08048_0001_0000200012_0000001_0_af2pred_0001 (protein)
chain: SSSSNEELRELIELLREAAELIHDGNPEEAREVIEKAKEIAKEANNELAKFILEWLEERVSSSSS
B8: il10ra_site1_sap_16_mot_HHH_b1_07286_af2_000000054_0001_1_19_H_._HHH_b2_05721_0001_0000100004_0000001_0_0001 (protein)
chain: SSSSSEEQEALELVLEAFHLALRGDEEEAEKVLEEALELAKEAGDERLARQIENMLKALKSSSSS
B9: il10ra_site1_sap_25_mot_HHH_b1_06804_000000054_0001_40_54_H_._HHH_b2_04424_0001_0000100002_0000001_0_0001 (protein)
chain: SVEEKVQEAIEEVVPDPEERRLLKLSLELQARQAGDPEQAARALAAFLYLRGNPELAELIEELLP
B10: il10ra_site1_normal_mot_HHH_b1_00456_000000263_0001_1_17_H_._HHH_b2_03924_0001_0000300014_0000002_0_af2pred_0001 (protein)
chain: SSSSSSDEEKEEAEELVEEARKIEDPKEVFKLLLEAFAIAVELNDDELRELVEKALRELSSSSSS
B11: il10ra_site1_normal_mot_HHH_b2_01310_000000089_0001_41_55_H_._HHH_b2_01340_0002_0000100003_0000001_1_af2pred_dldesign_0_af2pred (protein)
chain: SSSSSREELERLRAEVRALLEAGREEEAVEVLRELSRRATLLGDSEALQEAVELAKRIEESSSSS
B12: il10ra_site1_sap_27_mot_HHH_b1_07645_000000183_0001_1_20_H_._HHH_b2_04569_0001_0000400011_0000002_0_0001 (protein)
chain: SSSSSEEEEELEELIKKAEELLERGNPQEALEVLREAVRLAFQLGDPEALRKIWELVMRLKSSSS
B13: il10ra_site1_sap_20_mot_HHH_b1_05088_af2_000000046_0001_20_36_H_._HHH_b1_01147_0001_0000300027_0000001_0_0001 (protein)
chain: SSSSDLEEEIEKLREELEEARERGDKELALRLLLELLRLAYRTNDEELLQELWKIIREINSSSSS
B14: il10ra_site1_sap_16_mot_HHH_b2_01235_000000294_0001_1_18_H_._HHH_b1_05662_0001_0000300032_0000002_0_0001_af2pred_0001 (protein)
chain: SSSSSSYEHIVRIALETARIAAKRGDPELVERILRIAKLSAELANDPELERLVEEVERELSSSSS
B15: il10ra_site1_sap_12_mot_HHH_b2_07913_000000228_0001_1_19_H_._HHH_b1_06663_0001_0000200030_0000001_0_0001_af2pred_0001 (protein)
chain: SSSSSSREEILQLFVRISRLLDEGDEEEARHLLEELRELVEEYNDERAKKALRFLESLLSSSSSS
B16: il10ra_site1_sap_25_mot_HHH_b1_00103_000000293_0001_1_15_H_._HHH_b2_08380_0001_0000200009_0000001_0_0001 (protein)
chain: SSSSSDVAKIAQEALRAAYQKGDEEALQLIWEIIEEAAKGKIDEEEASKRLEEILEELESSSSSS
B17: il10ra_site1_sap_13_mot_HHH_b1_00169_000000276_0001_1_18_H_._HHH_b2_00204_af2_0001_0000600016_0000001_0_0001_af2pred_0001 (protein)
chain: SSSSDEVEEFAQEVAKRLAQLAREGDEEKVRELAEEAREELEKLGDPQLLLRLEALLRLINSSSS
B18: il10ra_site1_sap_12_mot_HHH_b1_06348_000000162_0001_1_15_H_._HHH_b1_02734_0002_0000200011_0000001_0_0001 (protein)
chain: SSSSDVQELLAIVARLMRKARDPEELRRLQRLSIEAQELLEEGDEEEARRVLEEAVEEYESSSSS
B19: il10ra_site1_sap_23_mot_HHH_b2_04681_000000155_0001_43_57_H_._HHH_b1_05116_af2_0001_0000200010_0000001_0_0001 (protein)
chain: SSSSSSDVEELLEEAQELRERGNPEEAIEVLLRALKHIYERGDEELLQELWELVERIGSSSSSSS
B20: il10ra_site1_sap_19_mot_HHH_b1_04771_000000013_0001_40_56_H_._HHH_b2_07595_af2_0001_0000300007_0000002_0_0001 (protein)
chain: SSSSDEEEKEVEELLEKAIRLAEERGDRAAVWLLRQALMALKLAGDPEALEIAEQMARIVLSSSS
B21: il10ra_site1_sap_11_mot_HHH_b2_03438_af2_000000049_0001_18_34_H_._HHH_b1_06062_0001_0000200032_0000001_1_0001 (protein)
chain: SSSSSTEEEIEELIEKAKEARENGDPRKAARLLAEAVRLAFELGDEELLREIWRLIHELASSSSS
B22: il10ra_site1_normal_mot_HHH_b2_04912_000000028_0001_1_20_H_._HHH_b2_05178_af2_0001_0000100003_0000001_0 (protein)
chain: SSSSDLNERALRLSIEAFRLLLRGDEEEAEKVLEEALELAEEANNERLFRQIEELLRALGSSSSS
B23: il10ra_site1_sap_15_mot_104c758fc23488854646035ccb2100c6_0001_000000282_0001_15_29_H_._01fd6ef1c0b6efbd76c07e5c6c7df02b_0001_0001_0000600016_0000001_0_0001 (protein)
chain: SSSSDEEVREEVREILEEAEQIEDERERAQLLFRAMELAYENGDDELWREVIQVAARLVQSSSSS
B24: il10ra_site1_normal_mot_8756ee2cf497b5429c717dfc0c0bcfd6_0001_000000186_0001_1_13_H_._HHH_b2_04126_af2_0001_0000700027_0000001_0 (protein)
chain: SSSSDEAAERVMELIREAIELQRRGNPEEAEKVLEEAQEIAEENNNDVLRAQLEYLLRRNSSSSS
B25: il10ra_site1_normal_mot_7f9b3cf633cfd27bca007b62ade1be3b_0001_1_000000138_0001_17_32_H_._HHH_b2_02154_0001_0000100005_0000001_1 (protein)
chain: SSSSDRAEEQARAARRFLRALVEAGDPEAARRIAEAAHQALRNLGNPELAEEIRELIEELLSSSS
B26: il10ra_site1_normal_mot_HHH_b2_01310_000000089_0001_41_55_H_._HHH_b1_05128_af2_0001_0000100002_0000001_0_af2pred_0001 (protein)
chain: SSSSDEEERLEELEKRLEELAEEGDEEEFIRLLLELARLAYRLNDKRIFERIIELAELFKSSSSS
B27: il10ra_site1_normal_mot_HHH_b2_08144_af2_000000046_0001_38_52_H_._HHH_b1_00696_0001_0000600035_0000001_0 (protein)
chain: SSSSTEEIQRIMELLRRAAELLNEGNPEEAEKLIEEAEELVKEANDPLLEIQLRFLERDINSSSS
B28: il10ra_site1_sap_23_mot_HHH_b1_07286_af2_000000054_0001_1_19_H_._HHH_b1_04853_0001_0000200021_0000001_1_0001 (protein)
chain: SSSSDEENREVYELSREAAELDSEGNPEEAEKVLEEARKLAEEAGNRLARIILEHLERIVNSSSS
B29: il10ra_site1_sap_20_mot_HHH_b1_04573_000000273_0001_43_57_H_._HHH_b2_07679_0001_0000100005_0000002_0_0001 (protein)
chain: SSSSSDENEEIYRLLREAAEALANGNPEEAREIVEQAVELAEEANSQVLLFNAEYLLRQINSSSS
B30: il10ra_site1_normal_mot_HHH_b2_07521_000000141_0001_20_37_H_._HHH_b2_04337_0001_0000200016_0000001_1 (protein)
chain: SSSSSDAERYVRLTLEFAKWLLEAGDPAYRRFLRAAEDIAKRAGDDELERLVEEVEEELNSSSSS
B31: il10ra_site1_normal_mot_HHH_b2_02337_000000026_0001_38_52_H_._HHH_b1_01113_0001_0000600054_0000001_0 (protein)
chain: SSSSDEEEEVKELLEEVRRLIEEGDFEEAAELLLRATHLAVELGDAELLQEVWEVVQLLYNSSSS
B32: il10ra_site1_normal_mot_HHH_b2_00273_000000062_0001_23_39_H_._HHH_b1_04796_af2_0001_0000100005_0000002_0 (protein)
chain: SSSSSEEELEELLEEVKKLIEKNDPERALRAIMEALRLAFRLSDEEALRELWELAKLVAELSSSS
B33: il10ra_site1_normal_mot_HHH_b2_03328_af2_000000127_0001_1_19_H_._HHH_b1_04034_0001_0000100003_0000001_0 (protein)
chain: SSSSDLEELYRLSREAAELFANGNPEEAERVLEEAEELAQELNSPVLLFNLRHLLRAIRQSSSSS
B34: il10ra_site1_normal_mot_HHH_b1_06804_000000054_0001_40_54_H_._HHH_b2_02477_af2_0001_0000600016_0000001_0_af2pred_dldesign_0_af2pred (protein)
chain: SSSSSSREELARLKAETEAALAAGDKETAYKLAIELAKRAAEEEDAEALAFARDVLERLSSSSSS
B35: il10ra_site1_normal_mot_HHH_b2_02053_af2_000000006_0001_3_19_H_._HHH_b2_07729_0001_0000400043_0000001_0 (protein)
chain: SSSSSEELYELSREALELLAQGNPEEAEKVIEEAEELAKELGNRAMLLVLRHLLHAVEQLSSSSS
B36: il10ra_site1_sap_25_mot_HHH_b2_07784_af2_000000103_0001_19_36_H_._HHH_b1_08477_0001_0000100004_0000001_0_0001 (protein)
chain: SSSSDEEEEKVLELFVKVSRLLDEGDEEKAEEILREAEELAKEINDPELELAVRFLKALASSSSS
B37: il10ra_site1_normal_mot_HHH_b2_05323_000000159_0001_1_18_H_._HHH_b1_00659_af2_0001_0000100005_0000002_0 (protein)
chain: SSSSDQEYVQEALRLVLEAFRLALRGNPEEARELLEEALELAEKGGNPRLARVIRHLLQALSSSS

Target: il10ra, Q13651
Test: yeast display titration

Apparent Kd, inactive:
B1 no binding seen, B2 no binding seen, B3 no binding seen, B4 no binding seen, B5 no binding seen, B6 no binding seen, B7 no binding seen, B8 no binding seen, B9 no binding seen, B10 no binding seen, B11 no binding seen, B12 no binding seen, B13 no binding seen, B14 no binding seen, B15 no binding seen, B16 no binding seen, B17 no binding seen, B18 no binding seen, B19 no binding seen, B20 no binding seen, B21 no binding seen, B22 no binding seen, B23 no binding seen, B24 no binding seen, B25 no binding seen, B26 no binding seen, B27 no binding seen, B28 no binding seen, B29 no binding seen, B30 no binding seen, B31 no binding seen, B32 no binding seen, B33 no binding seen, B34 no binding seen, B35 no binding seen, B36 no binding seen, B37 no binding seen
